Drawing on PMC10886832, this text covers binding for one substance.

The chains behind the UniProt entries cited, without tags or fusion partners.
UniProt P04150: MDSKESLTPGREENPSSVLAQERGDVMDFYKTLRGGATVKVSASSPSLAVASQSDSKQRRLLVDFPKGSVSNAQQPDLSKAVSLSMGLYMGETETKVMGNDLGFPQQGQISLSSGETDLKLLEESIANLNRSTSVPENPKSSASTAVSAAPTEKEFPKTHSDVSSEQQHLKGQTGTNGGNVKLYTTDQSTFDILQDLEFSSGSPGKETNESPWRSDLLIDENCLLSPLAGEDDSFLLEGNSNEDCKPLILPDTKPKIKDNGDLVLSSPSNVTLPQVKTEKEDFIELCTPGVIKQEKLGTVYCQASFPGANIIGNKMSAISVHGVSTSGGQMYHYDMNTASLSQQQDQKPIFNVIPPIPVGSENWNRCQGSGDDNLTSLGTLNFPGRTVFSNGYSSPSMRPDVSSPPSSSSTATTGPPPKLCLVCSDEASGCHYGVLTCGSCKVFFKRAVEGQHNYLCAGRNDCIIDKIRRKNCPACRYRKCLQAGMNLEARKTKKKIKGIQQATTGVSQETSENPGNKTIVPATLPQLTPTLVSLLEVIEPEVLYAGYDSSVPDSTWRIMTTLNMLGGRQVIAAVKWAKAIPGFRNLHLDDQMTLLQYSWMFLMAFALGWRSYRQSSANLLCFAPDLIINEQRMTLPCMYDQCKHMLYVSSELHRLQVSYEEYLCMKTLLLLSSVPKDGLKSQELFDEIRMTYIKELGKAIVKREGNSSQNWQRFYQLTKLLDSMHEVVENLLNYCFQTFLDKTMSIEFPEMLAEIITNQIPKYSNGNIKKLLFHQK

These are yes or no findings as the source states them, for the method shown. Binding seen in cells or lysates may run through a third protein. Some entries that bind do so weakly or less than the wild type.

For this assay, the target named is ten-eleven translocation 2 (UniProt Q6N021). The assay is described as follows: co-IP; in HEK293T cells; unpublished data; bait and prey not stated.

“glucocorticoid receptor (from UniProt P04150 1-777)”: the binding entry was “binds”.
